The list shows only some results of the screen, not a fair sample: it gathers tests that were run many times, whatever their T/C, doses with no T/C, and many T/C values between a quarter and a half above the control. Further doses and runs are listed elsewhere. T/C: endpoint of the treated group in % of that of the vehicle group. Some entries give survivors of the animals treated and no T/C: the source holds a T/C of zero for them, seemingly a mark for toxic or unscored doses. Some survivor counts are full or nearly so, which does not show that the dose was tolerated: the source hardly ever lists a survival T/C far under the control, and the zero likely stands for such cases as well. Counts of survivors are from the toxicity check (mostly the fifth day) where no day follows; animals may have died later. Schedule codes are those of the source, read here as Q, the interval in days (D) or hours (H), X, the number of doses. For survival time, the PubChem record calls one and a half times the control and up active, and a quarter to a half above the control has no call in these data; cut-offs in other NCI protocols can differ. Some entries were tested several times; their values stand side by side, smallest first. Some T/C values are followed by the survivors on the day toxicity was checked, most often the fifth; where none is given, no animal had died by that day.

These results are taken from PubChem BioAssay AID328 (DTP/NCI, 2004).

For the assay, the system named is BDF1 mice, P388 leukemia ip, median survival T/C. In words: NCI In Vivo Anticancer Drug Screen. Data for tumor model P388 Leukemia (intraperitoneal) in B6D2F1 (BDF1) mice. As to conditions: T/C endpoint: median survival time, higher T/C = longer survival. The method, boiled down: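 Survival ratio, drug arm over vehicle arm, in mice with a transplanted tumour.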

Setting [1] is: dose: 20.0 mg/kg/injection, schedule: Q04DX003 (ip), vehicle: saline with Tween-80.
[2] abbreviates: dose: 50.0 mg/kg/injection, schedule: Q01DX009 (ip), vehicle: Klucel (hydroxypropylcellulose) (HPC).
The mark [3] stands for this setting: dose: 50.0 mg/kg/injection, schedule: Q01DX009 (ip), vehicle: saline with Tween-80.
Where [4] appears, read: dose: 100.0 mg/kg/injection, schedule: Q01DX009 (ip), vehicle: saline with Tween-80.
[5] abbreviates: dose: 200.0 mg/kg/injection, schedule: Q01DX009 (ip), vehicle: saline with Tween-80.
Where [6] appears, read: dose: 50.0 mg/kg/injection, schedule: Q01DX009 (ip), vehicle: saline.
Where [7] appears, read: dose: 100.0 mg/kg/injection, schedule: Q01DX009 (ip), vehicle: saline.
The mark [8] stands for this setting: dose: 400.0 mg/kg/injection, schedule: Q01DX009 (ip), vehicle: saline with Tween-80.
The mark [9] stands for this setting: dose: 25.0 mg/kg/injection, schedule: Q01DX009 (ip), vehicle: water.
[10] abbreviates: dose: 2.5 mg/kg/injection, schedule: Q01DX009 (ip), vehicle: saline.

Turning to `C/C=C/C1=C(Cl)C(=O)[C@@H](Cl)[C@@]1(O)C(=O)OC`, the T/C is 125 and 142 % of control (dose: 2.5 mg/kg/injection, schedule: Q01DX009 (ip), vehicle: saline with Tween-80); 147 % of control (dose: 5.0 mg/kg/injection, schedule: Q01DX009 (ip), vehicle: saline with Tween-80). The survivor count is on record as 3 of 10 (dose: 15.0 mg/kg/injection, schedule: Q01DX009 (ip), vehicle: saline with Tween-80); 7 of 10 (dose: 20.0 mg/kg/injection, schedule: Q01DX009 (ip), vehicle: saline with Tween-80); 1 of 10 under setting [1]; 4 of 10 (dose: 22.5 mg/kg/injection, schedule: Q01DX009 (ip), vehicle: saline with Tween-80); 2 of 10 (dose: 26.0 mg/kg/injection, schedule: Q01DX001 (ip), vehicle: saline with Tween-80); 2 of 10 (dose: 30.0 mg/kg/injection, schedule: Q01DX009 (ip), vehicle: saline with Tween-80). For the same compound, the survivor count is 1 of 10 (dose: 40.0 mg/kg/injection, schedule: Q01DX001 (ip), vehicle: saline with Tween-80); 6 of 10 (dose: 45.0 mg/kg/injection, schedule: Q01DX009 (ip), vehicle: saline with Tween-80); 3 of 10 (dose: 60.0 mg/kg/injection, schedule: Q01DX001 (ip), vehicle: saline with Tween-80); 2 of 10 (dose: 90.0 mg/kg/injection, schedule: Q01DX001 (ip), vehicle: saline with Tween-80).

`CC1(c2ccc(N(CCCl)CCCl)cc2)NC(=O)NC1=O` (stereo not given): the T/C under setting [2] is 149 % of control [5 of 6 alive].

Turning to `C[C@]12C[C@H](O)[C@H]3[C@@H](CCC4=CC(=O)CC[C@@]43C)[C@@H]1CC[C@@H]2C(=O)CO`, the T/C is, setting by setting: (dose: 100.0 mg/kg/injection, schedule: Q04DX003 (sc), vehicle: steroid suspending solution) 125 % of control; (dose: 264.0 mg/kg/injection, schedule: Q04DX003 (sc), vehicle: steroid suspending solution) 127 % of control; (dose: 400.0 mg/kg/injection, schedule: Q04DX003 (sc), vehicle: steroid suspending solution) 125 and 127 % of control.

Consider `CC(C)S.[Cu+2]`, for which the survivor count is, setting by setting: under setting [3], 1 of 6; under setting [4], 0 of 6; under setting [5], 0 of 6.

`CCCCCCCCCC[N+](C)(C)CC(O)C[N+](C)(C)CCCCCCCCCC`: the survivor count runs as follows: under setting [3], 0 of 6; under setting [4], 0 of 6; under setting [5], 0 of 6.

`O=C(NCCCN1CC1)C(=O)NCCCN1CC1`: the survivor count (dose: 25.0 mg/kg/injection, schedule: Q01DX009 (ip), vehicle: saline) is listed as 4 of 6; the survivor count under setting [6] is given as 0 of 6; the survivor count under setting [7] is given as 0 of 6.

Turning to `O=C1C=CC(=O)N1c1ccc(Br)cc1Cl`, for the setting “dose: 4.0 mg/kg/injection, schedule: Q04DX003 (ip), vehicle: saline”, the T/C is 133 % of control.

As to `O=C1/C(=C\c2ccccc2)OC(c2ccccc2)O/C1=C/c1ccccc1` (stereo not given), the survivor count (dose: 400.0 mg/kg/injection, schedule: Q01DX009 (ip), vehicle: saline) is 4 of 6.

Take `Cc1cc(C)c(N)c(Br)c1C`: the survivor count under setting [8] was 5 of 6.

As to `O=C1Nc2ccc(Br)cc2C1=Nc1ccc(Cl)cc1`, the survivor count under setting [8] is on record as 3 of 6.

Consider `CCCCC(=O)NC(=O)c1ccccc1`, for which the survivor count under setting [8] was 6 of 6.

Turning to `CN(C)CCCNC1=C(Cl)C(=O)c2ccccc2C1=O`, under setting [2], the survivor count is given as 3 of 6.

For the compound `Cc1ccccc1C[P+](c1ccccc1)(c1ccccc1)c1ccccc1`, the survivor count is 6 of 6 (dose: 2.3 mg/kg/injection, schedule: Q04DX003 (ip), vehicle: Klucel (hydroxypropylcellulose) (HPC)); 0 of 6 (dose: 5.2 mg/kg/injection, schedule: Q04DX003 (ip), vehicle: Klucel (hydroxypropylcellulose) (HPC)); 5 of 6 (dose: 6.25 mg/kg/injection, schedule: Q01DX009 (ip), vehicle: saline); 3 of 6 (dose: 12.5 mg/kg/injection, schedule: Q01DX009 (ip), vehicle: saline); 5 of 6 under setting [1].

As to `CCCCCc1ccc2oc(=O)c3ccc(C)cc3c2c1O`, the survivor count by setting is: (dose: 12.5 mg/kg/injection, schedule: Q01DX009 (ip), vehicle: Klucel (hydroxypropylcellulose) (HPC)) 6 of 6; (dose: 25.0 mg/kg/injection, schedule: Q01DX009 (ip), vehicle: Klucel (hydroxypropylcellulose) (HPC)) 6 of 6.

`COc1cc(O)c2c(c1)Cc1cc(C)cc(O)c1C2=O`: where the note is “dose: 25.0 mg/kg/injection, schedule: Q01DX009 (ip), vehicle: saline with Tween-80”, the survivor count was 6 of 6.

As for `C[C@H](N)C(=O)N[C@@H]1[C@H]2C(=C(O)C[C@@H](O)[C@@H]2O)C(=O)O[C@@H]1C`, the T/C (dose: 200.0 mg/kg/injection, schedule: Q01DX010 (ip), vehicle: saline) was 137 % of control and the T/C (dose: 1064.0 mg/kg/injection, schedule: Q04DX003 (ip), vehicle: saline) is 146 % of control [7 of 8 alive].

Take `COc1cccc2c1C(=O)c1c(O)c3c(c(O)c1C2=O)C[C@@](O)(/C(CO)=N/NC(=O)c1ccccc1)C[C@@H]3OC1CC(N)C(O)C(C)O1` (stereo not given in full): the T/C (dose: 1.56 mg/kg/injection, schedule: Q01DX009 (ip), vehicle: water) was 146 % of control. The survivor count under setting [9] is listed as 6 of 6.

Consider `NC(=O)c1[nH]nc(C2OC(CO)C(O)C2O)c1O` (stereo not given), for which the T/C (dose: 0.5 mg/kg/injection, schedule: Q01DX009 (ip), vehicle: saline) was 129 % of control; the T/C under setting [10] was 158 and 172 % of control. Further, the survivor count runs as follows: under setting [10], 6 of 6; (dose: 5.0 mg/kg/injection, schedule: Q01DX009 (ip), vehicle: saline) 6 of 6; (dose: 10.0 mg/kg/injection, schedule: Q01DX009 (ip), vehicle: saline) 6 of 6; (dose: 20.0 mg/kg/injection, schedule: Q01DX009 (ip), vehicle: saline) 6 of 6; (dose: 40.0 mg/kg/injection, schedule: Q01DX009 (ip), vehicle: saline) 1 of 6; (dose: 80.0 mg/kg/injection, schedule: Q01DX009 (ip), vehicle: saline) 0 of 6.

In the case of `CCOC(=O)C(CC(C)C)NC(=O)C(Cc1ccc(N(CCCl)CCCl)cc1)NC(C)=O` (stereo not given), the T/C is 145 % of control (dose: 4.0 mg/kg/injection, schedule: Q01DX009 (ip), vehicle: other) and 139 % of control (dose: 16.0 mg/kg/injection, schedule: Q01DX009 (ip), vehicle: other).

Regarding `CC1CCCC/C1=N/NC(N)=O` (stereo not given), the survivor count (dose: 400.0 mg/kg/injection, schedule: Q01DX009 (ip), vehicle: Klucel (hydroxypropylcellulose) (HPC)) was 4 of 6.

Regarding `CCCCCCCCN(N)C12CC3CC(CC(C3)C1)C2`, the survivor count is, setting by setting: under setting [6], 5 of 6; under setting [7], 6 of 6.

With `COc1cccc(/C=C2\SC(=S)N(CCCN3CCOCC3)C2=O)c1OC`, the survivor count under setting [5] is on record as 6 of 6.

Take `Cc1ccc2c(c1)CCCN2C`: the survivor count under setting [7] was 5 of 6 and the survivor count (dose: 200.0 mg/kg/injection, schedule: Q04DX003 (ip), vehicle: saline) is reported as 5 of 6.

`C[n+]1ccc(Nc2ccc(NC(=O)c3ccc(N)cc3)cc2)cc1`: the T/C by setting is: under setting [9], 144 % of control; (dose: 25.0 mg/kg/injection, schedule: Q04DX003 (ip), vehicle: water) 126 % of control; (dose: 50.0 mg/kg/injection, schedule: Q01DX009 (ip), vehicle: water) 135 % of control; (dose: 50.0 mg/kg/injection, schedule: Q04DX003 (ip), vehicle: water) 133 % of control; (dose: 100.0 mg/kg/injection, schedule: Q04DX003 (ip), vehicle: water) 135 % of control; (dose: 200.0 mg/kg/injection, schedule: Q04DX003 (ip), vehicle: water) 133 % of control [5 of 6 alive].
